# The whole screen tested about 340,000 compounds, of which about 170 (0.05%) were called active. The inconclusive results got no clear call from the source; some entries with a clear call stand among them for comparison. The call rests on the fitted dose curve; in most records, active means well fitted inhibition curve with a large enough effect in the signal ratio, with a control signal flat (not every such curve was filed as active); inconclusive means small, poorly fitted or top-dose-only effect, or effect the other way, or a change in a side signal; inactive means flat fitted curve, though single readings scatter; the % refers to the signal ratio. Where the call is inconclusive, the potency comes from a doubtful curve fit.
# Experiment: qHTS Assay to Find Inhibitors of Chronic Active B-Cell Receptor Signaling;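 on activity change, negative = inhibition: plate controls were basal doxycycline-induced cells for no effect and cells given 10 µM MG132 for full effect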
# Conditions: ABC-DLBCL IkBa-CBG/CBR reporter, luminescence ratio (green luciferase fused to IkBa over red control in TMD8 lymphoma cells), 4 h; activity change, negative = inhibition: at 46.1 µM (top of the series) unless noted
# Procedure, shortened: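 TMD8 ABC-DLBCL cells carrying doxycycline-inducible green luciferase fused to IkappaBalpha plus unfused red luciferase were exposed to compounds (up to 46 uM) for 4 hrs at 37C. Activity came from the overlap-corrected green/red luminescence ratio.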
# Potency means the concentration at half of the fitted maximal effect.
Structure (SMILES),"activity change, negative = inhibition",Potency
CC(=O)OCC1=C(C(=O)O)N2C(=O)C(NC(=O)CCn3nc(C)c(Cl)c3C)C2SC1 (stereo unspecified),inactive,
CN(C)C=C1C(=O)c2ccccc2C1=O,,"inconclusive: 16.4 µM [falling, single point]"
C=CCc1ccccc1OCC(O)CN1CCN(C(=O)OCC)CC1 (stereo unspecified),,"inconclusive: 14.1 µM [falling, single point]"
Cc1cc(-c2ccc(C(C)C)c(S(=O)(=O)N3CCN(c4ccccc4)CC3)c2)on1,inconclusive: -12.9%,
COc1ccc(C2C(C(=O)N3CCN(c4ccccc4)CC3)c3ccccc3C(=O)N2C)cc1 (stereo unspecified),inactive,
Cc1ccc(S(=O)(=O)N2CCOCC2)cc1C(=O)N1CCN(S(=O)(=O)c2cccc(F)c2)CC1,inconclusive: -0.531%,
Cc1ccc(S(=O)(=O)NCc2ccc3c(c2)OCO3)cc1C,inactive,
O=C(Nc1cccc(Oc2ccc(C(=O)O)c(C(=O)O)c2)c1)c1ccc(-c2ccccc2)cc1,,"inconclusive: 5.62 µM [rising, single point]"
CC(C)c1ccc(NC(=O)c2ccc(NC3=NC4CS(=O)(=O)CC4S3)cc2)cc1 (stereo unspecified),inconclusive: -7.16%,
CC(CC(=O)Nc1cccc(Cl)c1)c1ccccc1 (stereo unspecified),inconclusive: 17.6%,
CCCNC(=O)Cn1sc2nc(C)cc(C)c2c1=O,inactive,
CCSc1cnn(-c2ccccc2)c(=O)c1SCC,,"inconclusive: 29.1 µM [rising, single point]"
O=C1OCCC1Sc1nnc(-c2ccc3c(c2)OCO3)o1 (stereo unspecified),,"inconclusive: 31.6 µM [rising, single point]"
COc1cc(C(=O)N2CC(C)OC(C)C2)c([N+](=O)[O-])cc1OC (stereo unspecified),inconclusive: -1.91%,
C=CCN(CC=C)S(=O)(=O)c1ccc2nc(NC(=O)C(C)C)sc2c1,,"inconclusive: 29.1 µM [falling, single point]"
Cc1noc(C)c1C(=O)N1CCN(C(=O)c2sc3cc(Cl)ccc3c2Cl)CC1,inconclusive: 1.7%,
C/C(=N\NC(=O)c1ccccc1NC(=O)c1ccc(Cl)cc1)c1ccncc1,,"inconclusive: 3.98 µM [falling, full curve]"
NS(=O)(=O)c1cccc(NC(=O)CSc2nc3ccccc3n2-c2ccccc2)c1,,"inconclusive: 22.4 µM [falling, single point]"
CCn1c(CNc2ccc(Cl)cc2)nnc1SCc1ccc(C)cc1,inconclusive: 12.2%,
Cc1ccc(S(=O)(=O)NC(C)(C)CSc2nncn2C)cc1,inconclusive: 10.8%,
CS(=O)(=O)Nc1ccccc1C(=O)NCc1ccco1,inactive,
N#C/C(=C\c1ccc(Br)s1)C(=O)N1CCN(c2ccccc2)CC1,inconclusive: -1.21%,
COc1cccc(CC(=O)Nc2ccc3c(c2)CCC3)c1,inactive,
O=C(NC(=S)N1CCN(c2ccc(Cl)cc2[N+](=O)[O-])CC1)c1cccs1,,"inconclusive: 4.11 µM [falling, full curve]"
CCOC(=O)c1c(NC(=O)CSc2nnc(-c3ccncc3)n2Cc2ccco2)sc(C)c1C,inconclusive: -12.6%,
O=C(Nc1ccc(N2CCCCC2)cc1)c1cccnc1Cl,,"inconclusive: 2.31 µM [falling, partial curve, poor fit]"

Structure (SMILES),"activity change, negative = inhibition",Potency
COc1ccc(CNC(=O)c2csc(Cc3ccc(Cl)cc3)n2)cc1,inconclusive: 1.05%,
Cc1ccccc1Nc1nc(-c2ccccc2)c(C(=O)Nc2cccnc2)s1,,"inconclusive: 2.31 µM [falling, partial curve, poor fit]"
Cc1ccc(-c2nnc(-c3cccc(NC(=O)c4cccs4)c3)o2)cc1,inactive,
O=C(OCc1c(-c2ccccc2)ncc2ccccc12)c1ccco1,,"inconclusive: 20.6 µM [falling, partial curve, poor fit]"
Cc1onc(-c2ccccc2)c1C(=O)N1CCCCCC1,inactive,
COCCOC(=O)c1nccnc1C(=O)Nc1ccc(S(=O)(=O)N2CCOCC2)cc1,inconclusive: 3.1%,
O=C(CCc1nnc2ccc(NCc3ccco3)nn12)Nc1ccccc1F,inconclusive: -19.4%,
O=C1c2ccccc2C(=O)N1CCC1=CCCCC1,,"inconclusive: 2.59 µM [rising, full curve, poor fit]"
CN(C)S(=O)(=O)c1ccc(C(=O)NC2CCCc3ccccc32)cc1 (stereo unspecified),inconclusive: -17.1%,
Cc1cc(=O)oc2cc(NC(=O)c3cc([N+](=O)[O-])ccc3N3CCOCC3)ccc12,,"inconclusive: 35.5 µM [falling, single point]"
COc1cccc(NC(=O)Nc2cc(C)ccc2OC)c1,inconclusive: 18.5%,
Cc1ccc2cc(C#N)c(N3CCCC3)nc2c1C,inactive,
Cc1ccccc1NC(=S)N/N=C/c1ccc(O)cc1O,inconclusive: 20.6%,
Cc1ccc2nc(NC(=O)CSCc3ccccc3)sc2c1,inconclusive: -25.6%,
CCc1ccc(C2=NN(C(C)=O)C(c3ccco3)C2)cc1 (stereo unspecified),,"inconclusive: 22.4 µM [falling, single point]"
CCOC(=O)C(NC(=O)c1cccc(Cl)c1)(OCc1ccc(F)cc1)C(F)(F)F (stereo unspecified),inactive,
Nn1c(SCC(=O)Nc2ccc(F)cc2F)nnc1C1CCCCC1,,"inconclusive: 35.5 µM [rising, single point]"
O=C(NCc1ccccc1)c1ccc(C2SCC(=O)N2Cc2ccccc2)cc1 (stereo unspecified),inconclusive: 15.2%,
CCOC(=O)C1CCN(C2=NC(=O)/C(=C/c3ccccc3OC)S2)CC1,inconclusive: 369%,
CCn1cc(/C=C(\NC(=O)c2ccccc2OC)C(=O)NCCCN2CCOCC2)c2ccccc21,inconclusive: 0.612%,
C=CCNC(=O)c1c(N)n(-c2cccc(S(N)(=O)=O)c2)c2nc3ccccc3nc12,inactive,
CC(=O)Nc1ccc(/C(C)=N/NC(=O)c2ccc(F)cc2)cc1,,"inconclusive: 23.1 µM [falling, single point]"
COc1ccc2c(c1)CC/C(=C/c1ccncc1)C2=O,inconclusive: -7.84%,
O=C(Nc1nc2ccccc2[nH]1)c1ccc(Cl)c(S(=O)(=O)N2CCCC2)c1,inactive,
CN(C)CCCOc1nn(Cc2ccccc2)c2ccccc12,,"inconclusive: 25.1 µM [falling, single point]"

# 3 entries from above in a different format:
Structure (SMILES) | activity change, negative = inhibition | Potency
CCc1ccc(C2=NN(C(C)=O)C(c3ccco3)C2)cc1 (stereo unspecified) |  | inconclusive: 22.4 µM [falling, single point]
CC(=O)Nc1ccc(/C(C)=N/NC(=O)c2ccc(F)cc2)cc1 |  | inconclusive: 23.1 µM [falling, single point]
O=C(Nc1nc2ccccc2[nH]1)c1ccc(Cl)c(S(=O)(=O)N2CCCC2)c1 | inactive | 

# From PubChem BioAssay AID493014 (National Center for Advancing Translational Sciences (NCATS), 2011)
